Measured values as given in publication doi:10.1101/2022.02.08.479534.
Changes are numbered by the printed parent chain. Results are given in words; binding and its absence hold for the method and conditions named. For part of these data: In cells and extracts the contact can be indirect. Some binding calls cover weakened binding; strength is not graded here. Where a sequence is shown, tags or fusion partners need not be part of it. Each block holds one molecule with its values, some of them ahead of it.

Amino acid sequences for entries named in this document (tags omitted). A change or cut given only in a name is not applied to a line headed by its entry.
UniProt Q03347, whole entry: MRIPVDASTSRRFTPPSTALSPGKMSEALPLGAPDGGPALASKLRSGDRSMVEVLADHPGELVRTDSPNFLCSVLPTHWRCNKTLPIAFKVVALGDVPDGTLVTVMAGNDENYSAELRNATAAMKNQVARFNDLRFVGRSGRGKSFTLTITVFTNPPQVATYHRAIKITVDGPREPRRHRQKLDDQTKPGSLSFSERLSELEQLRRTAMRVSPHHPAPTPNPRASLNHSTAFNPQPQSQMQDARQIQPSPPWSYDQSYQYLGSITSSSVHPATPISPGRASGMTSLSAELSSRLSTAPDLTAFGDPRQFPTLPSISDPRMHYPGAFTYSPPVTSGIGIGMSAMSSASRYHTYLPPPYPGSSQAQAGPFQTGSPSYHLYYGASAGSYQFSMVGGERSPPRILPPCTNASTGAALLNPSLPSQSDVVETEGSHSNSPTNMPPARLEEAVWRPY

Assays:
[1] = molecular target: T1, HA-tagged full-length FoxP3 R337Q (mouse) (UniProt Q99JB6); assay: co-IP
T1 sequence: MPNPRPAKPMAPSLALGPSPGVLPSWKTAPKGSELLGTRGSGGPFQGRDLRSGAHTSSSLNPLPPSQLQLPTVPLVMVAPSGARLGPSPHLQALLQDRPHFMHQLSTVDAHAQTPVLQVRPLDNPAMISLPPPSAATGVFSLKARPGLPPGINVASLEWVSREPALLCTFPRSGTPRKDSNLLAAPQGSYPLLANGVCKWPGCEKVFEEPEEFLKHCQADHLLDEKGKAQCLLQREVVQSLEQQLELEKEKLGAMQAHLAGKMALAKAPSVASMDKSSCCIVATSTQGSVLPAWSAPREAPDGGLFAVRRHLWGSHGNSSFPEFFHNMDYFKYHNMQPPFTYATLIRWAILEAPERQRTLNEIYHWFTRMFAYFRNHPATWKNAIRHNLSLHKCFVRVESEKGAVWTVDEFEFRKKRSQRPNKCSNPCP

[2] = molecular target: T2, HA-tagged full-length FoxP3 R337Q+A372S (mouse) (UniProt Q99JB6); assay: co-IP
T2 sequence: T1 sequence with A372S

[3] = molecular target: T3, HA-tagged full-length FoxP3 (mouse) (UniProt Q99JB6); assay: co-IP
T3 sequence: T1 sequence with Q337R

[4] = molecular target: NusA-tagged FoxP1^RBR-forkhead (mouse) (UniProt P58462); assay: SEC-MALS
[5] = molecular target: NusA-tagged FoxP2^RBR-forkhead (mouse) (UniProt P58463); assay: SEC-MALS
[6] = molecular target: NusA-tagged FoxP4^RBR-forkhead (mouse) (UniProt Q9DBY0); assay: SEC-MALS

binding [1]: binds
binding [2]: binds
binding [3]: binds
Molecule: FLAG-tagged full-length Runx1 (from UniProt Q03347 1-451)

binding [4]: no binding
B1: NusA-tagged FoxP1^RBR-forkhead (domain or fragment, UniProt P58462 433-579)
chain: HTPTTPTAPLTPVTQGPSVITTTSMHTVGPIRRRYSDKYNVPISSADIAQNQEFYKNAEVRPPFTYASLIRQAILESPEKQLTLNEIYNWFTRMFAYFRRNAATWKNAVRHNLSLHKCFVRVENVKGAVWTVDEVEFQKRRPQKISG

binding [5]: no binding
B2: NusA-tagged FoxP2^RBR-forkhead (domain or fragment, UniProt P58463 447-588)
chain: TTPTAPVTPITQGPSVITPASVPNVGAIRRRHSDKYNIPMSSEIAPNYEFYKNADVRPPFTYATLIRQAIMESSDRQLTLNEIYSWFTRTFAYFRRNAATWKNAVRHNLSLHKCFVRVENVKGAVWTVDEVEYQKRRSQKIT

binding [6]: no binding
B3: NusA-tagged FoxP4^RBR-forkhead (domain or fragment, UniProt Q9DBY0 418-577)
chain: GLGSASLHSGGPARRRSNDKFCSPISSELAQNHEFYKNADVRPPFTYASLIRQAILETPDRQLTLNEIYNWFTRMFAYFRRNTATWKNAVRHNLSLHKCFVRVENVKGAVWTVDEREYQKRRPPKMTGSPTLVKNMISGLSYGALNASYQAALAESSFPL
